Experimental data: PubChem BioAssay AID1224830 (NIAID, 2016)
In all, the deposit lists about 18,000 reagents; below is an unselected part. In the full data, about 2,900 (16%) were called active. 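Calls are made per well; low scores hint the gene aids the LPS response, high scores that it dampens it.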 Entries without a mark were called inactive. Repeated entries: four replicate wells of each siRNA pool. No sequences are given here.

Test: 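Regulators of TLR4 signalling towards TNF-alpha in macrophage-like cells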 (primary screen)
Cell system: human THP-1 monocytic leukaemia cells, TNF dual-luciferase reporter clone, PMA-differentiated to macrophage-like cells
Reagents: siRNA pool against human genes, 50 nM
Time to read-out: LPS for 4 h, given about 3 days after siRNA transfection
Challenge: bacterial LPS (TLR4 ligand), 10 ng/ml
Read-out: 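TNF firefly reporter luminescence divided by renilla, normalised to the plate median, then turned into a robust z-score for each replicate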
Scale: TNF reporter robust z-score: higher = stronger TNF reporter response to LPS
Active means: 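a well is active when its z-score exceeds 2.8 or falls below -1.5; control wells carry no call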

gene	TNF reporter robust z-score
RPL23A (ribosomal protein L23a)	-0.97
RPL23A (ribosomal protein L23a)	-0.75
RPL23A (ribosomal protein L23a)	-0.93
RPL23A (ribosomal protein L23a)	-0.37
VPS28 (VPS28 subunit of ESCRT-I)	-0.13
VPS28 (VPS28 subunit of ESCRT-I)	-0.32
VPS28 (VPS28 subunit of ESCRT-I)	-0.43
VPS28 (VPS28 subunit of ESCRT-I)	-0.33
TCF15 (transcription factor 15)	0.42
TCF15 (transcription factor 15)	0.45
TCF15 (transcription factor 15)	-0.05
TCF15 (transcription factor 15)	0.34
LIPT1 (lipoyltransferase 1)	-1.28
LIPT1 (lipoyltransferase 1)	0.07
LIPT1 (lipoyltransferase 1)	-0.71
LIPT1 (lipoyltransferase 1)	-0.07
SLX4 (SLX4 structure-specific endonuclease subunit)	-1.46
SLX4 (SLX4 structure-specific endonuclease subunit)	-1.09
SLX4 (SLX4 structure-specific endonuclease subunit)	-1.37
SLX4 (SLX4 structure-specific endonuclease subunit)	-1
TIMM8B (translocase of inner mitochondrial membrane 8 homolog B)	-1.78 (active)
TIMM8B (translocase of inner mitochondrial membrane 8 homolog B)	-0.61
TIMM8B (translocase of inner mitochondrial membrane 8 homolog B)	-1
TIMM8B (translocase of inner mitochondrial membrane 8 homolog B)	-1.82 (active)
PLAAT2 (phospholipase A and acyltransferase 2)	0.37
PLAAT2 (phospholipase A and acyltransferase 2)	1.94
PLAAT2 (phospholipase A and acyltransferase 2)	1.41
PLAAT2 (phospholipase A and acyltransferase 2)	1.65
CCNY (cyclin Y)	0.11
CCNY (cyclin Y)	0.45
CCNY (cyclin Y)	-0.62
CCNY (cyclin Y)	-0.05
HAPLN4 (hyaluronan and proteoglycan link protein 4)	-1.25
HAPLN4 (hyaluronan and proteoglycan link protein 4)	-1.03
HAPLN4 (hyaluronan and proteoglycan link protein 4)	-1.06
HAPLN4 (hyaluronan and proteoglycan link protein 4)	-1.29
TC2N (tandem C2 domains, nuclear)	-1.03
TC2N (tandem C2 domains, nuclear)	0.16
TC2N (tandem C2 domains, nuclear)	-1.02
TC2N (tandem C2 domains, nuclear)	-0.22
CENPK (centromere protein K)	0.22
CENPK (centromere protein K)	0.74
CENPK (centromere protein K)	0.13
CENPK (centromere protein K)	0.6
RAMAC (RNA guanine-7 methyltransferase activating subunit)	0.29
RAMAC (RNA guanine-7 methyltransferase activating subunit)	2.14
RAMAC (RNA guanine-7 methyltransferase activating subunit)	0.41
RAMAC (RNA guanine-7 methyltransferase activating subunit)	1.16
TMC6 (transmembrane channel like 6)	-0.72
TMC6 (transmembrane channel like 6)	2.29
TMC6 (transmembrane channel like 6)	-0.48
TMC6 (transmembrane channel like 6)	2.45
OR9A4 (olfactory receptor family 9 subfamily A member 4)	-0.7
OR9A4 (olfactory receptor family 9 subfamily A member 4)	-0.38
OR9A4 (olfactory receptor family 9 subfamily A member 4)	-0.08
OR9A4 (olfactory receptor family 9 subfamily A member 4)	-0.15
APOA1 (apolipoprotein A1)	-0.45
APOA1 (apolipoprotein A1)	-0.89
APOA1 (apolipoprotein A1)	-1.03
APOA1 (apolipoprotein A1)	-0.31
TBC1D17 (TBC1 domain family member 17)	0.65
TBC1D17 (TBC1 domain family member 17)	0.25
TBC1D17 (TBC1 domain family member 17)	0.21
TBC1D17 (TBC1 domain family member 17)	0.6
TLX1NB (TLX1 neighbor)	0.23
TLX1NB (TLX1 neighbor)	1.47
TLX1NB (TLX1 neighbor)	0.46
TLX1NB (TLX1 neighbor)	0.22
BPIFB6 (BPI fold containing family B member 6)	0.65
BPIFB6 (BPI fold containing family B member 6)	0.43
BPIFB6 (BPI fold containing family B member 6)	0.56
BPIFB6 (BPI fold containing family B member 6)	0.42
MAPKAPK3 (MAPK activated protein kinase 3)	-0.55
MAPKAPK3 (MAPK activated protein kinase 3)	-1.53 (active)
MAPKAPK3 (MAPK activated protein kinase 3)	-0.68
MAPKAPK3 (MAPK activated protein kinase 3)	-1.42
PLA2G3 (phospholipase A2 group III)	0.47
PLA2G3 (phospholipase A2 group III)	-0.21
PLA2G3 (phospholipase A2 group III)	1.42
PLA2G3 (phospholipase A2 group III)	0.54
ALDH1L2 (aldehyde dehydrogenase 1 family member L2)	0.77
ALDH1L2 (aldehyde dehydrogenase 1 family member L2)	0.79
ALDH1L2 (aldehyde dehydrogenase 1 family member L2)	1.46
ALDH1L2 (aldehyde dehydrogenase 1 family member L2)	2.28
NDUFAF6 (NADH:ubiquinone oxidoreductase complex assembly factor 6)	0.01
NDUFAF6 (NADH:ubiquinone oxidoreductase complex assembly factor 6)	-0.81
NDUFAF6 (NADH:ubiquinone oxidoreductase complex assembly factor 6)	-0.39
NDUFAF6 (NADH:ubiquinone oxidoreductase complex assembly factor 6)	-0.52
HYCC2 (hyccin PI4KA lipid kinase complex subunit 2)	-0.46
HYCC2 (hyccin PI4KA lipid kinase complex subunit 2)	0.77
HYCC2 (hyccin PI4KA lipid kinase complex subunit 2)	0.78
HYCC2 (hyccin PI4KA lipid kinase complex subunit 2)	1.53
TAS2R3 (taste 2 receptor member 3)	0.49
TAS2R3 (taste 2 receptor member 3)	1.61
TAS2R3 (taste 2 receptor member 3)	0.31
TAS2R3 (taste 2 receptor member 3)	1.41
LMNTD2 (lamin tail domain containing 2)	0.83
LMNTD2 (lamin tail domain containing 2)	0.24
LMNTD2 (lamin tail domain containing 2)	1.19
LMNTD2 (lamin tail domain containing 2)	-0.26
POU2F2 (POU class 2 homeobox 2)	-0.85
POU2F2 (POU class 2 homeobox 2)	-0.41
POU2F2 (POU class 2 homeobox 2)	-1.84 (active)
POU2F2 (POU class 2 homeobox 2)	-0.29
MEX3B (mex-3 RNA binding family member B)	2.26
MEX3B (mex-3 RNA binding family member B)	1.69
MEX3B (mex-3 RNA binding family member B)	1.15
MEX3B (mex-3 RNA binding family member B)	1.94
REG4 (regenerating family member 4)	-1.25
REG4 (regenerating family member 4)	-1.05
REG4 (regenerating family member 4)	-0.94
REG4 (regenerating family member 4)	-1.09

17 entries from above in another layout:
| gene | TNF reporter robust z-score |
| --- | --- |
| BPIFB6 (BPI fold containing family B member 6) | 0.56 |
| BPIFB6 (BPI fold containing family B member 6) | 0.42 |
| MAPKAPK3 (MAPK activated protein kinase 3) | -0.55 |
| MAPKAPK3 (MAPK activated protein kinase 3) | -1.53 (active) |
| MAPKAPK3 (MAPK activated protein kinase 3) | -0.68 |
| MAPKAPK3 (MAPK activated protein kinase 3) | -1.42 |
| PLA2G3 (phospholipase A2 group III) | 0.47 |
| PLA2G3 (phospholipase A2 group III) | -0.21 |
| PLA2G3 (phospholipase A2 group III) | 1.42 |
| PLA2G3 (phospholipase A2 group III) | 0.54 |
| ALDH1L2 (aldehyde dehydrogenase 1 family member L2) | 0.77 |
| ALDH1L2 (aldehyde dehydrogenase 1 family member L2) | 0.79 |
| ALDH1L2 (aldehyde dehydrogenase 1 family member L2) | 1.46 |
| ALDH1L2 (aldehyde dehydrogenase 1 family member L2) | 2.28 |
| NDUFAF6 (NADH:ubiquinone oxidoreductase complex assembly factor 6) | 0.01 |
| NDUFAF6 (NADH:ubiquinone oxidoreductase complex assembly factor 6) | -0.81 |
| NDUFAF6 (NADH:ubiquinone oxidoreductase complex assembly factor 6) | -0.39 |
